Screen size: about 310,000 compounds; about 17,000 (5.5%) were called active. Inconclusive means that the source gave no clear call. Such entries were picked first, then a sample of the others. The call rests on the fitted dose curve; in most records, active means well fitted inhibition curve with a large enough effect; inconclusive means small, poorly fitted or top-dose-only effect, or effect the other way; inactive means no such curve, though single readings can be large or run the other way. Where the call is inconclusive, the potency comes from a doubtful curve fit.
biological target: Nuclear receptor ROR-gamma (Mus musculus) (UniProt P51450); assay: qHTS for inhibitors of ROR gamma transcriptional activity; details: Drosophila S2 Gal4-RORgamma UAS-luciferase reporter, 20 h; activity change, negative = inhibition: at 53.6 µM (top of the series); further: nearly all actives have a fitted effect of over 60% in size
Procedure, shortened: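 A Gal4/UAS one-hybrid system in insect cells: metallothionein-promoter Gal4–ROR gamma fusion plus Photinus luciferase reporter. Copper sulfate 700 uM final, 20 hr ambient incubation, luminescent detection after 10 min with reagent.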
On the % scale 0 is the no-effect control and ±100 the full control effect; potency means the concentration at half of the fitted maximal effect.

Protein sequences, listed by entry. Tags and fused reporters are not part of them. Lines headed by an entry give the natural chain unless they say otherwise; changes in a name come on top.
UniProt P51450: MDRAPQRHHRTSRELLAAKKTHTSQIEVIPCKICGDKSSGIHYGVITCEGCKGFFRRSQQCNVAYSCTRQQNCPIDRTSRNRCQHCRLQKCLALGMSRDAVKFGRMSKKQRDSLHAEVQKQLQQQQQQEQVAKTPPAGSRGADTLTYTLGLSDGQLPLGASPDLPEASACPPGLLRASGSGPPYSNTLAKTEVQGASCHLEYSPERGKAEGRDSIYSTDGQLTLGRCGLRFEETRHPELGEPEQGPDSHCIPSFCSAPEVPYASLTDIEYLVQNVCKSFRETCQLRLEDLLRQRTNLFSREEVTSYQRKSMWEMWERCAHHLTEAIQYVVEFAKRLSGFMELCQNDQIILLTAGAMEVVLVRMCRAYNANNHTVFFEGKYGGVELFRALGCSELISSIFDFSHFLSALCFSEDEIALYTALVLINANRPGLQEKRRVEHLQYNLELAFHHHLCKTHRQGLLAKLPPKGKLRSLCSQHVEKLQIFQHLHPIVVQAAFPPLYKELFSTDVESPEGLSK

Potency, active:
CN(Cc1ccccc1)S(=O)(=O)c1ccc(C(=O)Nc2nnc(C3CC3)o2)cc1 0.282 µM
Cc1ccc(NC(=S)NC(=O)C2CCC2)cc1C 2.24 µM
CC1=NN(C(N)=S)C(=O)C1N=Nc1c(C)cc(C)cc1C (configuration not stated) 0.501 µM
O=C(c1ccc2c(=O)n(C3CCCC3)c(=S)[nH]c2c1)N1CCCCCC1 1.26 µM
CCCCn1c(=O)n(CC(=O)Nc2c(CC)cccc2CC)c(=O)c2c1nc(CO)n2CCC 7.08 µM
NC1=NCC(O)=C1c1nc2ccccc2[nH]1 11.2 µM
O=C(/C=C/c1c(F)cccc1Cl)N1CCc2ccccc2C1 0.398 µM
O=C(COC(=O)c1cccc(S(=O)(=O)N2CCN(c3ccccc3)CC2)c1)NCc1ccco1 8.91 µM
C=CCNC(=S)Nc1sc2c(c1C(N)=O)CCCC2 11.2 µM

Three entries from above, ordered by SMILES length, rising.
Potency, active:
C=CCNC(=S)Nc1sc2c(c1C(N)=O)CCCC2 11.2 µM
CCCCn1c(=O)n(CC(=O)Nc2c(CC)cccc2CC)c(=O)c2c1nc(CO)n2CCC 7.08 µM
O=C(COC(=O)c1cccc(S(=O)(=O)N2CCN(c3ccccc3)CC2)c1)NCc1ccco1 8.91 µM

Next part.

Potency, inconclusive:
O=C(C1CCCC1)N1CCC(CC2CC(c3cccc(Br)c3)=NO2)(C(=O)NCC2CCCCC2)CC1 (configuration not stated) 7.94 µM [activator, partial curve]
COc1ccccc1-n1c(SCC(=O)NCc2ccc3c(c2)OCO3)nc2cc([N+](=O)[O-])ccc21 2.51 µM [inhibitor, single point]
COc1ccccc1N1CCN(C(=O)c2ccc3[nH]c4c(c3c2)CC(C)CC4)CC1 (configuration not stated) 25.1 µM [activator, single point]
C/C(=N\NC(=O)CC(C)C)c1ccc(Cl)c(Cl)c1 15.8 µM [inhibitor, partial curve]
C=C(C)COc1ccc(-c2nc(N)ncc2-c2ccc(OC)cc2)c(O)c1 35.5 µM [inhibitor, single point]
COc1ccc(NC(=O)CN(C)CC(=O)Nc2cccc(C(F)(F)F)c2)cc1 17.8 µM [activator, single point]
C=CCOC(=O)c1c(C)nc2cc3c(cc2c1C)OCO3 8.91 µM [activator, partial curve]
CS(=O)(=O)N1CCc2cc(-c3csc(NC(=O)Cc4ccccc4)n3)ccc21 0.126 µM [activator, partial curve, poor fit]
C/C(=N\O)c1cc(Cl)cc(Cl)c1O 2.24 µM [inhibitor, full curve]
Cc1cc(C)n(-c2nc(NCC(C)O)c3c4c(sc3n2)CCCC4)n1 (configuration not stated) 35.5 µM [inhibitor, single point]
CCn1c(SCC(=O)c2ccc(F)cc2)nnc1-c1ccoc1C 35.5 µM [inhibitor, single point]
CC(=O)c1ccc(NC(=O)c2cc3ccccc3o2)cc1 0.708 µM [activator, single point]
CCOC(=O)C1NN=C(C(=O)c2ccccc2)C1c1ccccc1 (configuration not stated) 12.6 µM [activator, single point]
COc1ccc(C(=O)O/N=C(\N)c2ccccc2)cc1 22.4 µM [inhibitor, single point]
O=C(NCCc1nc2ccccc2[nH]1)c1cc([N+](=O)[O-])cc([N+](=O)[O-])c1 2.24 µM [inhibitor, partial curve, poor fit]
C=C1SC(Nc2c(C)cc(C)cc2C)=NC12CCCCC2 1.12 µM [inhibitor, full curve]
O=C(c1ccccc1)c1nn(-c2ccc(Cl)cc2)c(=O)cc1C(F)(F)F 35.5 µM [inhibitor, single point]
Cc1ccc(NCc2n[nH]c(=S)n2-c2ccccc2)cc1Cl 5.62 µM [inhibitor, partial curve]
Cc1ccc(C(=O)NCCSc2c(C)[nH]c3ccccc23)cc1[N+](=O)[O-] 20 µM [activator, single point]
Cc1ccc(C(=O)OCC(=O)c2c[nH]c3ccccc23)cc1S(=O)(=O)N1CCCCC1 35.5 µM [activator, single point]
COCCN(C(=O)c1ccccc1F)c1nnc(-c2ccc(OC)cc2)s1 15.8 µM [activator, single point]
COc1ccc(NC(=O)CSc2nnc(-c3cccs3)n2Cc2ccco2)cc1OC 5.01 µM [inhibitor, single point]
CCOc1ccc(-c2noc(CCC(=O)NCC3CCCO3)n2)cc1OC (configuration not stated) 0.794 µM [inhibitor, single point]
FC(F)(F)c1cccc(NC(=S)NNC(=S)NCc2ccccc2)c1 35.5 µM [inhibitor, single point]
Cc1ccc(-c2nnc(Nc3ccc4c(c3)OCO4)c3ccccc23)cc1S(N)(=O)=O 17.8 µM [activator, partial curve]
COc1ccc(C2CC(c3ccccc3)=NN2S(=O)(=O)c2ccccc2)cc1 (configuration not stated) 8.91 µM [inhibitor, partial curve]

Activity change, negative = inhibition, inactive:
COc1cc(CN2CCNC(=O)C2CC(=O)N(C)CCCN2CCOCC2)cc(OC)c1 (configuration not stated) -7.92%
CCCCOCCCNC(=O)C1CCCCC1 -4.1%
Nc1c(C(=O)NCCN2CCOCC2)c2nc3ccccc3nc2n1-c1ccccc1 36.3%
Cc1ccc2cc3cc(C(=O)NC4CC4)oc3nc2c1 -21.1%
O=C(Nc1ccc2oc(-c3cccnc3)nc2c1)c1ccc2c(c1)OCCO2 7.22%
COc1ccc(NC(=O)c2cc(-c3cccc(OC)c3)on2)cc1 -14.8%
O=C(NNC(=S)Nc1ccc(Cl)cc1)c1ccccc1OC(F)F -38.8%
CN1C(=O)CSc2ccc(NC(=O)NCc3cccnc3)cc21 -16.6%
COc1cccc(NC(=O)CN2CCN(S(=O)(=O)c3ccc(C(C)C)cc3)CC2)c1 41.6%
CC1(C)OC(=O)C(=NNc2ccc(O)cc2)C(=O)O1 -9.18%
CCc1ccc(NC(=O)C(C)OC(=O)c2ccc(N3CCCC3)c([N+](=O)[O-])c2)cc1 (configuration not stated) 25.5%
Cc1ccc(S(=O)(=O)NC2=NCN(C(C)C)CN2)cc1 -26.9%
